Common to all, as to assay: affinity purification with mass spectrometry; SPA-tagged bait from E. coli MG1655 lysate (nuclease-treated, 0.1% Triton X-100, 100 mM NaCl, pH 7.9, 4 °C); anti-FLAG Sepharose, TEV cleavage, then calmodulin Sepharose; on-bead trypsin digestion and LC-MS/MS; cultures grown as LB log, LB ON and M9 0.2% acetate; three biological replicates; two controls (untagged MG1655 and mVenus-SPA)

Chains of the proteins cited; added tags and fusions are not shown.
UniProt P0ACB0: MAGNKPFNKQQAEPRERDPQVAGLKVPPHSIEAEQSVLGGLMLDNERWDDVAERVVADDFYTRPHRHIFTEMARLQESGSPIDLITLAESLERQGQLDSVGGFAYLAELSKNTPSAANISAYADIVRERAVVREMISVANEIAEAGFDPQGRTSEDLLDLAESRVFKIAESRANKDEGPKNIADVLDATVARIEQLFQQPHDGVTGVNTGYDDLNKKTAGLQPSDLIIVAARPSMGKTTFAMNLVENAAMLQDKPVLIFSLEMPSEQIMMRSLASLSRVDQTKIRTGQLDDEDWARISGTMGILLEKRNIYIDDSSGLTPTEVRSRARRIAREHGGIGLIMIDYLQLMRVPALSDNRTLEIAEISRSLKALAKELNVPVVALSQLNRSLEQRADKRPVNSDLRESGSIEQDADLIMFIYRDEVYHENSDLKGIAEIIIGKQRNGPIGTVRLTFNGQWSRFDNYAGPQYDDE
UniProt P28632: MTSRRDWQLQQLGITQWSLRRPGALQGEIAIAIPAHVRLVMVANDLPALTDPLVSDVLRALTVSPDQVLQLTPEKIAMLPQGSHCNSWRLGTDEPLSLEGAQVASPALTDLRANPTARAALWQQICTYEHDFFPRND
UniProt P09980: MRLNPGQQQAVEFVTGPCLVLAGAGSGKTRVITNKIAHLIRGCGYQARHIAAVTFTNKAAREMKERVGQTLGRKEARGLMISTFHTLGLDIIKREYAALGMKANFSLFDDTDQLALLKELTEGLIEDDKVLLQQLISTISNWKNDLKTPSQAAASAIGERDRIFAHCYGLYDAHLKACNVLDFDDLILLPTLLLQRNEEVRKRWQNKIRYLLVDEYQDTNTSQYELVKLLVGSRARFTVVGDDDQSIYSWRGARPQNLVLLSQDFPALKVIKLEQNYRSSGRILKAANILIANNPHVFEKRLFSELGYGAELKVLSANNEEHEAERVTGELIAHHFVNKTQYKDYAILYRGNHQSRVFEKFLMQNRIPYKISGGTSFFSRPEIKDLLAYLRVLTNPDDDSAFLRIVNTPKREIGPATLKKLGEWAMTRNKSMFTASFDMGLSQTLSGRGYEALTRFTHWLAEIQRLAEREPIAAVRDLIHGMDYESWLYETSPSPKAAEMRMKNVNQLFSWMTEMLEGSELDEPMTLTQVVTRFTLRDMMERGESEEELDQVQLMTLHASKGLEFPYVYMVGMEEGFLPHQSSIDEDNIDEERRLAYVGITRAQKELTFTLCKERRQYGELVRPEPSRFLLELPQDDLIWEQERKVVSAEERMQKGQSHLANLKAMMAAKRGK
UniProt P0AGE0: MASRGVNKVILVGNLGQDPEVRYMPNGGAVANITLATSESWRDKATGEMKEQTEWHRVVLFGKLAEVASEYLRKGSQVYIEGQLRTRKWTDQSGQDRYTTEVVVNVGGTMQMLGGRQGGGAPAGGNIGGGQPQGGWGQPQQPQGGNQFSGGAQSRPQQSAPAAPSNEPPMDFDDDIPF

The target of one test is DnaB-SPA (E. coli) (UniProt P0ACB0).
For another test, the target named is HolD-SPA (E. coli) (UniProt P28632).
The target in another test is T1, DiaA-SPA (E. coli) (UniProt P66817).
T1 sequence: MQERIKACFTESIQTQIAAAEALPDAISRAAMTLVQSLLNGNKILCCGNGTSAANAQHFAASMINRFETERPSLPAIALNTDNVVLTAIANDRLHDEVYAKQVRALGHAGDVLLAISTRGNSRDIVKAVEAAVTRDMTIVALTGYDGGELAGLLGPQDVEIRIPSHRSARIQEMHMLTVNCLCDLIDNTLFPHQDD

Results are given in words; binding and its absence hold for the method and conditions named. Binding seen in cells or lysates may run through a third protein. Here binding means that the protein was enriched with, or labelled near, the bait; the list need not be complete.

For the molecule Rep (from UniProt P09980 1-673), the binding result in the test with DnaB-SPA (E. coli) is “binds”. On to Ssb (from UniProt P0AGE0 1-178), for which the binding entry with HolD-SPA (E. coli) is “binds”.

B1: DnaC (protein, UniProt P0AEF0 1-245)
chain: MKNVGDLMQRLQKMMPAHIKPAFKTGEELLAWQKEQGAIRSAALERENRAMKMQRTFNRSGIRPLHQNCSFENYRVECEGQMNALSKARQYVEEFDGNIASFIFSGKPGTGKNHLAAAICNELLLRGKSVLIITVADIMSAMKDTFRNSGTSEEQLLNDLSNVDLLVIDEIGVQTESKYEKVIINQIVDRRSSSKRPTGMLTNSNMEEMTKLLGERVMDRMRLGNSLWVIFNWDSYRSRVTGKEY
Consider B1, for which the binding entry in the test with DnaB-SPA (E. coli) was “binds”.

B2: DnaA (protein, UniProt P03004 1-467)
chain: MSLSLWQQCLARLQDELPATEFSMWIRPLQAELSDNTLALYAPNRFVLDWVRDKYLNNINGLLTSFCGADAPQLRFEVGTKPVTQTPQAAVTSNVAAPAQVAQTQPQRAAPSTRSGWDNVPAPAEPTYRSNVNVKHTFDNFVEGKSNQLARAAARQVADNPGGAYNPLFLYGGTGLGKTHLLHAVGNGIMARKPNAKVVYMHSERFVQDMVKALQNNAIEEFKRYYRSVDALLIDDIQFFANKERSQEEFFHTFNALLEGNQQIILTSDRYPKEINGVEDRLKSRFGWGLTVAIEPPELETRVAILMKKADENDIRLPGEVAFFIAKRLRSNVRELEGALNRVIANANFTGRAITIDFVREALRDLLALQEKLVTIDNIQKTVAEYYKIKVADLLSKRRSRSVARPRQMAMALAKELTNHSLPEIGDAFGGRDHTTVLHACRKIEQLREESHDIKEDFSNLIRTLSS
In the case of B2, in the test with DiaA-SPA (E. coli), the binding result was “binds”.

B3: topoisomerase III (protein, UniProt P14294 1-653)
chain: MRLFIAEKPSLARAIADVLPKPHRKGDGFIECGNGQVVTWCIGHLLEQAQPDAYDSRYARWNLADLPIVPEKWQLQPRPSVTKQLNVIKRFLHEASEIVHAGDPDREGQLLVDEVLDYLQLAPEKRQQVQRCLINDLNPQAVERAIDRLRSNSEFVPLCVSALARARADWLYGINMTRAYTILGRNAGYQGVLSVGRVQTPVLGLVVRRDEEIENFVAKDFFEVKAHIVTPADERFTAIWQPSEACEPYQDEEGRLLHRPLAEHVVNRISGQPAIVTSYNDKRESESAPLPFSLSALQIEAAKRFGLSAQNVLDICQKLYETHKLITYPRSDCRYLPEEHFAGRHAVMNAISVHAPDLLPQPVVDPDIRNRCWDDKKVDAHHAIIPTARSSAINLTENEAKVYNLIARQYLMQFCPDAVFRKCVIELDIAKGKFVAKARFLAEAGWRTLLGSKERDEENDGTPLPVVAKGDELLCEKGEVVERQTQPPRHFTDATLLSAMTGIARFVQDKDLKKILRATDGLGTEATRAGIIELLFKRGFLTKKGRYIHSTDAGKALFHSLPEMATRPDMTAHWESVLTQISEKQCRYQDFMQPLVGTLYQLIDQAKRTPVRQFRGIVAPGSGGSADKKKAAPRKRSAKKSPPADEVGSGAIA
For B3, in the test with HolD-SPA (E. coli), the binding entry was “binds”.

(Values after PMC10638427.)
